# In PubChem BioAssay (EPA / NIEHS):
# Chains of the proteins cited; added tags and fusions are not shown. Lines headed by an entry give the natural chain unless they say otherwise; changes in a name come on top.
# UniProt Q92753: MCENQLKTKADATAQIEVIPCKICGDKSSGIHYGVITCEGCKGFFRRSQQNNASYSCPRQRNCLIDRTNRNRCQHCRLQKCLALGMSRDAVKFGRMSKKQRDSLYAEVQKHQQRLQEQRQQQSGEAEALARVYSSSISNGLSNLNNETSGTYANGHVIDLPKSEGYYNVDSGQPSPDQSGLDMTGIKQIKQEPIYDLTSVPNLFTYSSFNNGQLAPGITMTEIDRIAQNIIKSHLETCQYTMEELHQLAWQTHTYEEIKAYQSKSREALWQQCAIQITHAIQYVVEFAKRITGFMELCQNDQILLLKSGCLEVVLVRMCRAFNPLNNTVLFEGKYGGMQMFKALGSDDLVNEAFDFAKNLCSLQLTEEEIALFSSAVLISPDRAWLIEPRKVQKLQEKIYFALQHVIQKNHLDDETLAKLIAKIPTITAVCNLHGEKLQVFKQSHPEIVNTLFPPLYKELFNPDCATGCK
# UniProt P28702: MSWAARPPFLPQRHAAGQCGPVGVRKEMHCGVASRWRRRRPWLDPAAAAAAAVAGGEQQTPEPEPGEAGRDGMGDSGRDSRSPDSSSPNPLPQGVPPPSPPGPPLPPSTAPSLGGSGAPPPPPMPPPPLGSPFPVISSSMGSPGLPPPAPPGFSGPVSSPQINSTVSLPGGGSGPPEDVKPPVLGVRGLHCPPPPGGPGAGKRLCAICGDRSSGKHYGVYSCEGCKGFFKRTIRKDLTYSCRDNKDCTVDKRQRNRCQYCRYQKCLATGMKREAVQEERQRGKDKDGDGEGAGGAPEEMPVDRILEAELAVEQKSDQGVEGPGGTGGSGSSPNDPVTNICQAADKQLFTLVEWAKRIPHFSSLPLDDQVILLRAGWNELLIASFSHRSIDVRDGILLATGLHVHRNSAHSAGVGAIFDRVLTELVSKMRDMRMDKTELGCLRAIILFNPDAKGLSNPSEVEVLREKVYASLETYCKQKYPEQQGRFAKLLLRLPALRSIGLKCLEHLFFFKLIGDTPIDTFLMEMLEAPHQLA
# UniProt P10827: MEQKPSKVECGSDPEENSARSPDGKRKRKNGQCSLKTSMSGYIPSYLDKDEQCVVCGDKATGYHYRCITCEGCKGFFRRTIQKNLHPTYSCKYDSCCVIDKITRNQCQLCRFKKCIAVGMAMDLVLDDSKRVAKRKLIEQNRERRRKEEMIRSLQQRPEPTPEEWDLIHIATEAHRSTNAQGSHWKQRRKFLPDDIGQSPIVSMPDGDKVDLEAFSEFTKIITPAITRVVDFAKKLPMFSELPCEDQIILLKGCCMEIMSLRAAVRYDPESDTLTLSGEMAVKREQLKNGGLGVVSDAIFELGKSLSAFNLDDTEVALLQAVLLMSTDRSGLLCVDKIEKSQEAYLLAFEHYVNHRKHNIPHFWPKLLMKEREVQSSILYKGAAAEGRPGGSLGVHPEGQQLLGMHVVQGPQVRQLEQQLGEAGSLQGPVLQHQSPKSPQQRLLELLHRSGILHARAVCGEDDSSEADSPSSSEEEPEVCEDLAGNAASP
# UniProt P51449: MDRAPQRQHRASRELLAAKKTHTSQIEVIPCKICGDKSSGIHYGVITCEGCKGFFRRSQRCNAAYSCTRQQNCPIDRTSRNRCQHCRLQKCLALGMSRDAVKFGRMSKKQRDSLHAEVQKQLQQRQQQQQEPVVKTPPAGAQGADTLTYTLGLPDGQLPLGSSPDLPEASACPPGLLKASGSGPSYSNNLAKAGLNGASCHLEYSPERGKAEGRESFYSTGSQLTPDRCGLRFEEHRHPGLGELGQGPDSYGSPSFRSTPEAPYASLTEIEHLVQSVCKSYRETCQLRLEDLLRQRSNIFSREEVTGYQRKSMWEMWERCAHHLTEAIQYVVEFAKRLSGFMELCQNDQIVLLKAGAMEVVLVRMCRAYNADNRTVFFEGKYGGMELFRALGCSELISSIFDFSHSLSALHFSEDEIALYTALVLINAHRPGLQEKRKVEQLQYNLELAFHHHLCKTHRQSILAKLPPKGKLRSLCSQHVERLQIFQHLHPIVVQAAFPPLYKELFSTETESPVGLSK
# UniProt P11473: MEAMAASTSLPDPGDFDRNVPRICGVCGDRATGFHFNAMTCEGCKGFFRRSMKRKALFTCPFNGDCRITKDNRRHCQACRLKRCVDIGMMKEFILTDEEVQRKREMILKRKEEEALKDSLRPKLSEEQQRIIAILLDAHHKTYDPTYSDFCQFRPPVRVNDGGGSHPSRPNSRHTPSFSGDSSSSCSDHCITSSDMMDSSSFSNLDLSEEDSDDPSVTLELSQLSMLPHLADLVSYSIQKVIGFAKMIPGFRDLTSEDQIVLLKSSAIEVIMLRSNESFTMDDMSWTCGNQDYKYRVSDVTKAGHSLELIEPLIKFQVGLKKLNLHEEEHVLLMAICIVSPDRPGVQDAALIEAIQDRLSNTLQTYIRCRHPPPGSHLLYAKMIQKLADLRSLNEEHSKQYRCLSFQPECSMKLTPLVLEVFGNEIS
# UniProt P19793: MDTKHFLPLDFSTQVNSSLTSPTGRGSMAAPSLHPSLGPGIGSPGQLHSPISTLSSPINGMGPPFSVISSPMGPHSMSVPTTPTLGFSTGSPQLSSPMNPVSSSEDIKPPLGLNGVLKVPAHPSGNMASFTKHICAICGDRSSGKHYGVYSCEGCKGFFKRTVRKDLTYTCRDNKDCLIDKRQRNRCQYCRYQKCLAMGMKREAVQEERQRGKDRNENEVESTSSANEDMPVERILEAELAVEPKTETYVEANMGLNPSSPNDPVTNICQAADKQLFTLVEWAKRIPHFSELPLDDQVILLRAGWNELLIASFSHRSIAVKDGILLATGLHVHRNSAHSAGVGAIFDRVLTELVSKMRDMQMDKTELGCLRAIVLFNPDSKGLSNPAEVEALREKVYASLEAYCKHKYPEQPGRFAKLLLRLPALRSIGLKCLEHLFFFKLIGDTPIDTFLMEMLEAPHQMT
# Several values for one entry are separate records, joined by “and”; a condition that tells them apart may be missing. Equal values may be shown once. Inconclusive means that the source gave no clear call. Such entries were picked first, then a sample of the others. Potencies beside an inconclusive call are fits to weak or partial responses and may not hold up. Activity calls are given as the source filed them. Rule for the calls: active = hit-call score of the fitted dose curve at least 0.9, where 1 is the maximum; inconclusive = response in the unintended direction; inactive = score below 0.9.
# Tests used:
# [1] = target: human RAR-related Orphan Receptor beta (RORb), RORB (gene 6096) (UniProt Q92753); assay: ATG_RORb_TRANS: Attagene TRANS-FACTORIAL HepG2 Assay for human RAR-related Orphan Receptor beta (RORb) (AID 2283010);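 for AC50: potency for increased reporter mRNA meaning activation of RORb-Gal4 chimera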
# Outline: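 Read-out is reporter mRNA induction, quantified by RT-PCR with fluorescent capillary electrophoresis, 24 h post-dose in transiently transfected HepG2 expressing exogenous NR-Gal4 chimera. Activity fitted upward versus DMSO.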
# [2] = target: human Retinoid X Receptor beta (RXRb), RXRB (gene 6257) (UniProt P28702); assay: ATG_RXRb_TRANS: Attagene TRANS-FACTORIAL HepG2 Assay for human Retinoid X Receptor beta (RXRb) (AID 2283013)
# Outline: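 Readout is reporter transcript induction after 24 h dosing. It is measured by RT-PCR of total RNA followed by fluorescent capillary electrophoresis. HepG2 liver cells carry transfected multiple reporter units driven by an exogenous RXRb-Gal4 fusion; activity is relative to DMSO.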
# [3] = target: human Thyroid Receptor alpha (THRa1), THRA (gene 7067) (UniProt P10827); assay: ATG_THRa1_TRANS: Attagene TRANS-FACTORIAL HepG2 Assay for human Thyroid Receptor alpha (THRa1) (AID 2283014)
# Outline: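 Measured here is mRNA from a GAL4-UAS reporter in transfected HepG2 cells carrying a Gal4-fused receptor, 24 h post-dose. DMSO served as negative control and baseline.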
# [4] = target: human RAR-related Orphan Receptor gamma (RORg), RORC (gene 6097) (UniProt P51449); assay: ATG_RORg_TRANS: Attagene TRANS-FACTORIAL HepG2 Assay for human RAR-related Orphan Receptor gamma (RORg) (AID 2283011);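 for AC50: potency for induction of reporter transcripts above DMSO so activators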
# Outline: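 Chimeric RORg-Gal4 transactivation in transfected HepG2; 24 h exposure; RT-PCR/capillary electrophoresis readout of reporter mRNA, DMSO baseline.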
# [5] = target: human Vitamin D Receptor (VDR), VDR (gene 7421) (UniProt P11473); assay: ATG_VDR_TRANS: Attagene TRANS-FACTORIAL HepG2 Assay for human Vitamin D Receptor (VDR) (AID 2283022)
# Outline: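 Multiplexed TRANS reporter in HepG2; 24 h treatment; reporter mRNA by RT-PCR plus capillary electrophoresis; upregulation scored relative to DMSO.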
# [6] = target: Retinoic acid receptor RXR-alpha (Homo sapiens) (UniProt P19793); assay: ATG_RXRa_TRANS: Attagene TRANS-FACTORIAL HepG2 Assay for human Retinoid X Receptor alpha (RXRa) (AID 2283012)
# Outline: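 TRANS format reporting activity of exogenous RXRa-Gal4 chimera in transiently transfected HepG2, 24 h exposure. Reporter transcripts quantified by RT-PCR with capillary electrophoresis, with gain of signal scored relative to DMSO.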
smiles,measurement,setting,value
CCCCCCCCCOC(C)=O,AC50,[1],inconclusive: 50.4 µM
same,outcome,[2],inactive
same,outcome,[3],inactive
CN(C)CCC=C1c2ccccc2CCc2ccccc21,AC50,[1],inconclusive: 10.5 µM
same,outcome,[4],inactive
same,AC50,[2],inconclusive: 33.4 µM
same,outcome,[5],inactive
NS(=O)(=O)c1cc2c(cc1Cl)NCNS2(=O)=O,outcome,[6],inactive
same,outcome,[2],inactive
same,AC50,[3],inconclusive: 100 µM
CC(O)CNCC(C)O (stereo not drawn),outcome,[1],inactive
same,AC50,[3],inconclusive: 27.8 µM
same,AC50,[5],inconclusive: 100 µM
CN(C)CCCN,AC50,[1],inconclusive: 100 µM
same,AC50,[4],inconclusive: 100 µM
same,outcome,[2],inactive
same,outcome,[5],inactive
CC1=CCC(O)(C(C)C)CC1 (stereo not drawn),outcome,[1],inactive
same,AC50,[2],inconclusive: 100 µM
C=CC(C)(CCC=C(C)C)OC=O (stereo not drawn),outcome,[4],inactive
same,AC50,[6],inconclusive: 48.8 µM
same,AC50,[2],inconclusive: 100 µM
same,outcome,[3],inactive
same,AC50,[5],inconclusive: 100 µM
CC1=CCC(C(C)C)C=C1 (stereo not drawn),AC50,[1],inconclusive: 0.918 µM
same,AC50,[6],inconclusive: 0.0632 µM
same,outcome,[2],inactive
CC(=O)CC(=O)N(C)C,AC50,[2],inconclusive: 0.00914 µM
same,outcome,[3],inactive
same,outcome,[5],inactive
c1ccc(Cc2ccccc2)cc1,AC50,[4],inconclusive: 100 µM
same,outcome,[3],inactive
same,outcome,[5],inactive
NCCN1CCNCC1,outcome,[1],inactive
same,AC50,[6],inconclusive: 100 µM
same,AC50,[2],active: 25.3 µM
same,AC50,[3],inconclusive: 100 µM
same,AC50,[5],inconclusive: 100 µM
COc1ccc(C(=O)Nc2nc3ccccc3c(NCc3ccccc3)c2C#N)cc1,outcome,[1],inactive
same,outcome,[6],inactive
same,AC50,[3],inconclusive: 3.12 µM
CCC(=O)OCC=Cc1ccccc1,AC50,[1],inconclusive: 100 µM
same,outcome,[4],inactive
same,AC50,[3],inconclusive: 100 µM
CC(C)c1cccc(O)c1,AC50,[4],inconclusive: 104 µM
same,AC50,[6],inconclusive: 27.5 µM
same,AC50,[2],inconclusive: 4.3 µM
same,outcome,[5],inactive
O=C(O)CCSCCC(=O)O,AC50,[1],inconclusive: 0.0823 µM
same,outcome,[2],inactive
same,AC50,[3],inconclusive: 0.112 µM

# 3 neighbouring entries out of the list so far, quoted:
smiles,measurement,setting,value
NS(=O)(=O)c1cc2c(cc1Cl)NCNS2(=O)=O,AC50,[3],inconclusive: 100 µM
CC(O)CNCC(C)O (stereo not drawn),outcome,[1],inactive
same,AC50,[3],inconclusive: 27.8 µM
